These are yes or no findings as the source states them, for the method shown. Binding seen in cells or lysates may run through a third protein.
Target: GST-EEA1-Rab5-GTP-binding domain (human) (UniProt Q15075)
Assay: pull-down; GST-EEA1-Rab5BD (4 μg) added to 800 μL postnuclear supernatant of U87MG cells (serum-starved, or PDGF-BB 50 ng/mL for 5 min; lysed by needle passage in 250 mM sucrose, 3 mM imidazole pH 7.4, 0.5 mM EDTA, no detergent), overnight at 4 °C, then Glutathione-Sepharose-4B beads 2 h at 4 °C, five washes, immunoblot; meant to isolate Rab5-GTP early endosomes; only the target purified

Sequences of proteins named here, by UniProt entry; tags and fusion partners are left off. A change or cut given only in a name is not applied to a line headed by its entry. Residues count along the entry.
UniProt Q15075, residues 36-218: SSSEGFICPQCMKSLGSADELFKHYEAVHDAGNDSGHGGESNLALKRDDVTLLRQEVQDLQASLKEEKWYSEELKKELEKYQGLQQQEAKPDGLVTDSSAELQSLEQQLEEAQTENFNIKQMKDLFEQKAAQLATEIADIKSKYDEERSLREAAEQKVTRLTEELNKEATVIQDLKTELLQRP
UniProt P07339: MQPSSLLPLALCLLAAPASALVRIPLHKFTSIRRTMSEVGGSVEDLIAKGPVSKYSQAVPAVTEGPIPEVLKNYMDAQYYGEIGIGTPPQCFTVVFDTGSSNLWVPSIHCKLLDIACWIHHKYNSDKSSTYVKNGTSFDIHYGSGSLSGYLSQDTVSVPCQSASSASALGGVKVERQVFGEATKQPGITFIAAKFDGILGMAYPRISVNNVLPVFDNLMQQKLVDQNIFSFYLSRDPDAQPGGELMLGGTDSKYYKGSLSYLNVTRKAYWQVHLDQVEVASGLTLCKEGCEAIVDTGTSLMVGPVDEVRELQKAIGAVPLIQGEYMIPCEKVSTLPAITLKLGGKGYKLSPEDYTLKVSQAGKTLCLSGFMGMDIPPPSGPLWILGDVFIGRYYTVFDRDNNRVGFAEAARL

Question: With cathepsin D (from UniProt P07339) as the substance, how does the binding read?
Answer: no binding (tested: 4 μg GST-EEA1-RBD in 800 μL PNS)
